In PubChem BioAssay AID493014 (National Center for Advancing Translational Sciences (NCATS), 2011):
The list shows a part of the results. The main result of the screen is listed elsewhere. These columns were measured beside it and carry no call. The list favours compounds with an active or inconclusive main result. Words in brackets tell the shape of the fitted curve; partial curves, single points and poor fits give uncertain potencies.

Assay: qHTS Assay to Find Inhibitors of Chronic Active B-Cell Receptor Signaling
Conditions: ABC-DLBCL IkBa-CBG/CBR reporter, luminescence ratio (green luciferase fused to IkBa over red control in TMD8 lymphoma cells), 4 h
Excerpt: NIH Molecular Libraries Probe Production Network [MLPCN] NIH Chemical Genomics Center [NCGC] MLPCN Grant: 1 R03 DA031086-01A1 PI Name: Dr. R. Eric Davis NCGC Assay Overview: Diffuse large B-cell lymphoma (DLBCL) is the most common category of non-Hodgkin lymphoma, with ~20,000 new cases per year in the United States. DLBCL should be regarded as a collection of different neoplasms. Microarray gene expression analysis has defined two principal types of DLBCL, named for their similarity to normal B cell stages or activation states: a germinal center B-cell (GCB) type, and an activated B-cell (ABC) type. In ABC-DLBCL, a constitutive high-level activity of the NF-kappaB family of transcription factors has been observed (1) and NF-kappaB target genes are more highly expressed in ABC primary tumors than in GCB tumors. Functional studies have shown a constitutive high-level activity of the IkappaB (inhibitor of kappa-B) kinase (IKK) complex. […] Further analysis of DLBCL primary tumors for NF-kappaB target gene expression imply that although CARD11 is required for constitutive IKK activity in all ABC-DLBCL lines, mutations in CARD11 may be the root cause of IKK activation only in lines or tumors with such mutations. In other words, CARD11 mutations may explain NF-kappaB activation in only 10% of ABC-DLBCL cases. […] This process has been termed 'chronic active BCR signaling' (CABS). The goal of this screen is to find small-molecule inhibitors of the CABS pathway found in ABC-DLBCL lines using a cell-based assay that measures IkappaBalpa stability, which has already been extensively validated in the OCI-Ly3 line (PubChem AID:445; REF: 4). […] The assay uses green (CBG68) and red (CBR) emitting beetle luciferases [Chroma-GloTM developed by Promega Corp.] where the green luciferase is fused to IkappaBalpha and the red luciferase is present in its native state. Both luciferase genes are stably present in the TMD8 human ABC DLBCL cell line, but their expression is under the control of tetracycline-inducible promoters. Following the addition of doxycycline to induce expression of the luciferases, the green luminescence in control cultures rises only slowly because the CBG fusion partner IkappaBalpha is targeted by IKK activity for rapid degradation. In contrast, green luminescence rises rapidly in the presence of proteasome inhibitors or IKK inhibitors. The rise in red luminescence of CBR is not affected by proteasome or IKK inhibitors, and serves as normalization for cell number and nonspecific effects. Compounds were screened as a concentration-titration series that ranged from 46 uM to 3 nM.
NCGC Assay Protocol Summary: Cells were seeded in 1536-well plates at 5000 cells/4uL in IMDM medium containing 0.5% FBS, w/o phenol red, 1% penicillin/streptomycin. Then, 23 nL of compounds or DMSO were delivered to each well using a pin tool. One uL 20ng/ml doxycycline was then dispensed into white solid 1536-well plates and the plates were incubated at 37C/5% C02 in a cell incubator for 4 hrs. Then 4 uL luminescent substrate mix (in-house prepared: 150 mM Tris-Cl, pH 7.6, 3 mM MgCl2, 1% Triton X-100, 5 mM DTT, 0.2 mM CoA, 0.15 mM ATP, 5 mM D-luciferin, final concentrations) was added to each well. The plate was incubated at r.t. for 10-15 min. The plates were measured on a ViewLux plate reader for green luminescence (540/20 nm filter) and red luminescence (618/8 nm filter). The green and red luminescent signals were corrected for red and green luminescence filter overlap using previously determined filter calibration constants (determined using the procedure outlined in the Promega Technical Manual; REF 4). The %Activity was determined from the ratio of corrected green/red luminescent values. MG132 were used as control. […] Red luminescent %Activity was normalized to the difference between red luminesence in basal cells (0%Activity) and zero luminescence (-100% Activity). […]

[1] = measured here: IkBa-CBG green luminescence
[2] = measured here: CBR red luminescence, cell number

SMILES	AC50 [1]	AC50 [2]
O=C(Nc1nccs1)c1ccc(Br)o1	5.8 µM [rising, full curve]	–
COc1ccccc1C(=O)Nc1nc2ccccc2s1	–	35.5 µM [falling, partial curve, poor fit]
CC1CCC2(CC1)SCC(=O)N2c1ccc(F)cc1 (configuration not stated)	–	1.58 µM [falling, partial curve, poor fit]
O=C(O)CS/C(=C\c1ccc(F)cc1)c1nc2ccccc2s1	–	15.8 µM [falling, partial curve, poor fit]
COC(=O)NC(=S)Nc1ccc(Oc2ccc(Cl)cc2Cl)c(Cl)c1	–	29.1 µM [rising, single point]
COc1ccc(CNC(=O)CSc2nnc(Cn3nnc4ccccc43)n2C)cc1	–	29.1 µM [falling, single point]
Cc1cc(OCC(=O)Nc2cccc(S(=O)(=O)NC3=NCCCCC3)c2)ccc1Cl	–	10.3 µM [falling, partial curve, poor fit]
O=Cc1cccc(Oc2ccc([N+](=O)[O-])cc2[N+](=O)[O-])c1	35.5 µM [falling, single point]	14.1 µM [falling, single point]
Cc1[nH]nc2c1C(c1cccs1)C(C#N)=C(N)O2 (configuration not stated)	–	11.2 µM [falling, partial curve]
O=C(CCCc1nc(-c2ccccc2Cl)no1)NC1CCCCC1	–	1.64 µM [rising, full curve, poor fit]
CCc1cc(C(=O)Cc2cnn(-c3ccccc3)c2)c(O)cc1O	–	3.55 µM [rising, full curve, poor fit]
C/C(=N/NC(=O)CSc1ccccn1)c1ccc([N+](=O)[O-])cc1	–	25.9 µM [rising, single point]
CCN1/C(=C/c2ccc3ccc(C)cc3[n+]2CC)Sc2ccccc21	23.1 µM [rising, partial curve, poor fit]	–
CCc1nc(C)cn1S(=O)(=O)c1cc(Br)ccc1OC	–	6.31 µM [falling, full curve, poor fit]
CCOC(=O)c1c(C)nn(-c2ccc(NC(=O)c3cccs3)cc2)c1C	–	35.5 µM [falling, single point]
Clc1ccc(C2=NNC(=NCC3CCCO3)SC2)cc1 (configuration not stated)	20.6 µM [falling, single point]	16.4 µM [falling, single point]
CCOc1ccccc1Nc1ccc(C(=O)O)cc1[N+](=O)[O-]	12.6 µM [rising, partial curve, poor fit]	–
C=CCn1c(SCc2ccc(F)cc2)nnc1-c1sc2nc(C)cc(C)c2c1N	–	17.8 µM [rising, single point]
CCC1CCCCN1S(=O)(=O)c1ccc(NC(=O)C2CCN(C(=O)c3ccco3)CC2)cc1 (configuration not stated)	–	5.01 µM [rising, single point]
COc1ccc(C(=O)COC(=O)/C=C/c2ccccc2)c(OC)c1	–	5.8 µM [rising, full curve]
COc1cc(Cl)cc(/C=C/c2ccc3cccc(O)c3n2)c1OC	–	12.6 µM [rising, partial curve, poor fit]
COc1ccccc1NS(=O)(=O)c1cccc(NC(=O)c2ccc3ccccc3n2)c1	–	0.146 µM [rising, full curve, poor fit]

SMILES	AC50 [1]	AC50 [2]
c1ccc(-c2noc(CN3CCN(c4cnccn4)CC3)n2)cc1	–	0.224 µM [rising, full curve, poor fit]
O=C(CSc1nc2[nH]c(=O)cc(O)c2s1)Nc1nccs1	–	29.1 µM [rising, single point]
O=C(c1ccncc1)N1N=C(c2ccc(Cl)cc2)CC1c1ccccc1O (configuration not stated)	–	0.126 µM [falling, full curve]
COC(=O)CNC(c1ccccc1)c1cc(C)ccc1NC(=O)CNC(=O)OCc1ccccc1 (configuration not stated)	–	8.2 µM [falling, partial curve]
O=C(c1cccs1)N1CCN(C/C=C/c2ccccc2)CC1	–	18.4 µM [rising, partial curve, poor fit]
CCCNC(=O)COC(=O)/C=C/c1ccco1	–	0.00411 µM [falling, full curve, poor fit]
Cc1cccc(-c2ccc3ncnc(NCc4cccs4)c3c2)c1	–	32.6 µM [falling, single point]
CCCCCOc1ccc(C(=O)N(Cc2ccccc2)C2CCS(=O)(=O)C2)cc1 (configuration not stated)	–	6.31 µM [rising, single point]
Cc1ccc(-n2c(SCC(=O)NCCN3C(=O)CSC3=O)nnc2-c2cccc(C)c2)cc1	–	0.146 µM [rising, full curve, poor fit]
Cc1ccccc1NC(=O)NC(N)=O	–	0.224 µM [rising, full curve, poor fit]
N#Cc1cccc(NC(=O)NCCc2c[nH]c3ccccc23)c1	–	0.092 µM [rising, full curve, poor fit]
COc1ccccc1CN(C)C(=O)c1ccc(S(=O)(=O)Nc2c(C)n(C)n(-c3ccccc3)c2=O)cc1	–	29.1 µM [rising, single point]
O=C(CSc1nnc(Cc2ccccc2)o1)Nc1ccc(N2CCOCC2)cc1	–	6.51 µM [rising, partial curve, poor fit]
Cc1csc(NC(=O)C(Cc2ccccc2)n2cccc2)n1 (configuration not stated)	18.4 µM [rising, partial curve, poor fit]	–
Cn1c(=O)c2c(nc(SCC(=O)Nc3ccccc3)n2C)n(C)c1=O	–	5.8 µM [falling, single point]
O=C(CSCc1ccc(Cl)cc1)NCCSCc1ccco1	–	15.8 µM [falling, single point]
Cc1noc(C)c1S(=O)(=O)N(C)C[C@H]1Oc2ccc(NC(=O)CCC(F)(F)F)cc2C(=O)N([C@H](C)CO)C[C@@H]1C	–	16.4 µM [rising, partial curve, poor fit]
Cc1cc(NC(=O)CCC(=O)N(c2ccccc2)C(C(=O)NCC2CCCO2)c2cccnc2)no1 (configuration not stated)	–	14.1 µM [falling, single point]
Cn1cc(CN2CCN(Cc3cccnc3)CC2)c(-c2ccc3c(c2)OCCO3)n1	–	15.8 µM [falling, partial curve, poor fit]
CCOc1ccccc1NC(=O)COC(=O)c1c[nH]c2ccccc12	–	0.411 µM [falling, full curve]
c1ccc(NC2=Nc3ccccc3CS2)cc1	–	0.112 µM [rising, full curve]
COCCCNC(=O)c1c(N)n(/N=C/c2cccnc2)c2nc3ccccc3nc12	16.4 µM [rising, partial curve, poor fit]	20.6 µM [falling, partial curve]

SMILES	AC50 [1]	AC50 [2]
Cc1ccc(/C=N/N=C/c2ccc(C)cc2)cc1	–	2.06 µM [rising, partial curve, poor fit]
Cc1cccc(C(=O)Nc2ccc(N3CCC(CCN4CCOCC4)CC3)c(C(=O)O)c2)c1	–	7.08 µM [rising, partial curve]
S=c1nc(C2CC2)n(-c2ccccc2)[nH]1	–	2.82 µM [falling, full curve, poor fit]
Cc1ccc(O)c(-c2cc(C(=O)Nc3c(C)n(C)n(-c4ccccc4)c3=O)[nH]n2)c1	–	18.4 µM [falling, partial curve, poor fit]
COc1ccc(C(=O)Nc2nc(C)cs2)cc1S(=O)(=O)N1CCCC1	–	0.891 µM [falling, full curve, poor fit]
CCOC(=O)Cc1[nH]nc2c1C(C1C=CCCC1)C(C#N)=C(N)O2 (configuration not stated)	–	8.91 µM [falling, partial curve]
N/C(=N\OC(=O)c1ccc(Cl)cc1Cl)c1ccccn1	–	11.2 µM [falling, partial curve]
CC(=O)Nc1ccc(OCc2nnc(-c3ccc(Cl)cc3)o2)cc1	–	11.2 µM [rising, partial curve, poor fit]
COc1cccc(-c2cc(C(F)(F)F)nc(-n3cc(C)cn3)n2)c1	–	35.5 µM [falling, single point]
O=c1cc(NCc2ccccc2)nc2ccccn12	–	14.1 µM [falling, single point]
COc1cccc(NC(=O)COc2ccccc2C(N)=O)c1	–	16.4 µM [falling, partial curve]
Cc1cc(C)c2c(c1)N[C@H](c1cccs1)[C@@H]1CCO[C@H]21	–	0.562 µM [rising, full curve, poor fit]
CN(C)c1ccc(/C=N/NC(=O)c2ccnn2C)cc1	–	1 µM [falling, full curve]
CCN(CC)c1nc2ccccc2c(N)c1-c1ccccc1	–	35.5 µM [falling, single point]
Cc1cc(=O)[nH]c(N/N=C/c2c[nH]c3ccccc23)n1	–	7.08 µM [falling, partial curve]
COc1ccc(Br)cc1CN(C)CC(=O)Nc1cccc(S(=O)(=O)N2CCCC2)c1	–	23.1 µM [falling, single point]
Cc1ccc2occ(/C=N/NC(=O)c3ccccc3C)c(=O)c2c1	–	17.8 µM [falling, partial curve]
Cc1cc2ccc3ccccc3c2cc1CN(C)C	–	11.2 µM [falling, partial curve, poor fit]
CCN1CCN(C(=S)NC(=O)c2cc(OC)c(OC)c(OC)c2)CC1	–	4.11 µM [rising, full curve, poor fit]
Cc1noc(C)c1COc1cccc(C(=O)Nc2ccc(OCc3ccccc3)cc2)c1	–	5.01 µM [falling, partial curve, poor fit]

A second format for part of the listing above:
SMILES | AC50 [1] | AC50 [2]
COc1cccc(-c2cc(C(F)(F)F)nc(-n3cc(C)cn3)n2)c1 | – | 35.5 µM [falling, single point]
O=c1cc(NCc2ccccc2)nc2ccccn12 | – | 14.1 µM [falling, single point]
COc1cccc(NC(=O)COc2ccccc2C(N)=O)c1 | – | 16.4 µM [falling, partial curve]
Cc1cc(C)c2c(c1)N[C@H](c1cccs1)[C@@H]1CCO[C@H]21 | – | 0.562 µM [rising, full curve, poor fit]
CN(C)c1ccc(/C=N/NC(=O)c2ccnn2C)cc1 | – | 1 µM [falling, full curve]
CCN(CC)c1nc2ccccc2c(N)c1-c1ccccc1 | – | 35.5 µM [falling, single point]
